# According to publication PMC7876134:
# The chains behind the UniProt entries cited, without tags or fusion partners.
# UniProt P21333: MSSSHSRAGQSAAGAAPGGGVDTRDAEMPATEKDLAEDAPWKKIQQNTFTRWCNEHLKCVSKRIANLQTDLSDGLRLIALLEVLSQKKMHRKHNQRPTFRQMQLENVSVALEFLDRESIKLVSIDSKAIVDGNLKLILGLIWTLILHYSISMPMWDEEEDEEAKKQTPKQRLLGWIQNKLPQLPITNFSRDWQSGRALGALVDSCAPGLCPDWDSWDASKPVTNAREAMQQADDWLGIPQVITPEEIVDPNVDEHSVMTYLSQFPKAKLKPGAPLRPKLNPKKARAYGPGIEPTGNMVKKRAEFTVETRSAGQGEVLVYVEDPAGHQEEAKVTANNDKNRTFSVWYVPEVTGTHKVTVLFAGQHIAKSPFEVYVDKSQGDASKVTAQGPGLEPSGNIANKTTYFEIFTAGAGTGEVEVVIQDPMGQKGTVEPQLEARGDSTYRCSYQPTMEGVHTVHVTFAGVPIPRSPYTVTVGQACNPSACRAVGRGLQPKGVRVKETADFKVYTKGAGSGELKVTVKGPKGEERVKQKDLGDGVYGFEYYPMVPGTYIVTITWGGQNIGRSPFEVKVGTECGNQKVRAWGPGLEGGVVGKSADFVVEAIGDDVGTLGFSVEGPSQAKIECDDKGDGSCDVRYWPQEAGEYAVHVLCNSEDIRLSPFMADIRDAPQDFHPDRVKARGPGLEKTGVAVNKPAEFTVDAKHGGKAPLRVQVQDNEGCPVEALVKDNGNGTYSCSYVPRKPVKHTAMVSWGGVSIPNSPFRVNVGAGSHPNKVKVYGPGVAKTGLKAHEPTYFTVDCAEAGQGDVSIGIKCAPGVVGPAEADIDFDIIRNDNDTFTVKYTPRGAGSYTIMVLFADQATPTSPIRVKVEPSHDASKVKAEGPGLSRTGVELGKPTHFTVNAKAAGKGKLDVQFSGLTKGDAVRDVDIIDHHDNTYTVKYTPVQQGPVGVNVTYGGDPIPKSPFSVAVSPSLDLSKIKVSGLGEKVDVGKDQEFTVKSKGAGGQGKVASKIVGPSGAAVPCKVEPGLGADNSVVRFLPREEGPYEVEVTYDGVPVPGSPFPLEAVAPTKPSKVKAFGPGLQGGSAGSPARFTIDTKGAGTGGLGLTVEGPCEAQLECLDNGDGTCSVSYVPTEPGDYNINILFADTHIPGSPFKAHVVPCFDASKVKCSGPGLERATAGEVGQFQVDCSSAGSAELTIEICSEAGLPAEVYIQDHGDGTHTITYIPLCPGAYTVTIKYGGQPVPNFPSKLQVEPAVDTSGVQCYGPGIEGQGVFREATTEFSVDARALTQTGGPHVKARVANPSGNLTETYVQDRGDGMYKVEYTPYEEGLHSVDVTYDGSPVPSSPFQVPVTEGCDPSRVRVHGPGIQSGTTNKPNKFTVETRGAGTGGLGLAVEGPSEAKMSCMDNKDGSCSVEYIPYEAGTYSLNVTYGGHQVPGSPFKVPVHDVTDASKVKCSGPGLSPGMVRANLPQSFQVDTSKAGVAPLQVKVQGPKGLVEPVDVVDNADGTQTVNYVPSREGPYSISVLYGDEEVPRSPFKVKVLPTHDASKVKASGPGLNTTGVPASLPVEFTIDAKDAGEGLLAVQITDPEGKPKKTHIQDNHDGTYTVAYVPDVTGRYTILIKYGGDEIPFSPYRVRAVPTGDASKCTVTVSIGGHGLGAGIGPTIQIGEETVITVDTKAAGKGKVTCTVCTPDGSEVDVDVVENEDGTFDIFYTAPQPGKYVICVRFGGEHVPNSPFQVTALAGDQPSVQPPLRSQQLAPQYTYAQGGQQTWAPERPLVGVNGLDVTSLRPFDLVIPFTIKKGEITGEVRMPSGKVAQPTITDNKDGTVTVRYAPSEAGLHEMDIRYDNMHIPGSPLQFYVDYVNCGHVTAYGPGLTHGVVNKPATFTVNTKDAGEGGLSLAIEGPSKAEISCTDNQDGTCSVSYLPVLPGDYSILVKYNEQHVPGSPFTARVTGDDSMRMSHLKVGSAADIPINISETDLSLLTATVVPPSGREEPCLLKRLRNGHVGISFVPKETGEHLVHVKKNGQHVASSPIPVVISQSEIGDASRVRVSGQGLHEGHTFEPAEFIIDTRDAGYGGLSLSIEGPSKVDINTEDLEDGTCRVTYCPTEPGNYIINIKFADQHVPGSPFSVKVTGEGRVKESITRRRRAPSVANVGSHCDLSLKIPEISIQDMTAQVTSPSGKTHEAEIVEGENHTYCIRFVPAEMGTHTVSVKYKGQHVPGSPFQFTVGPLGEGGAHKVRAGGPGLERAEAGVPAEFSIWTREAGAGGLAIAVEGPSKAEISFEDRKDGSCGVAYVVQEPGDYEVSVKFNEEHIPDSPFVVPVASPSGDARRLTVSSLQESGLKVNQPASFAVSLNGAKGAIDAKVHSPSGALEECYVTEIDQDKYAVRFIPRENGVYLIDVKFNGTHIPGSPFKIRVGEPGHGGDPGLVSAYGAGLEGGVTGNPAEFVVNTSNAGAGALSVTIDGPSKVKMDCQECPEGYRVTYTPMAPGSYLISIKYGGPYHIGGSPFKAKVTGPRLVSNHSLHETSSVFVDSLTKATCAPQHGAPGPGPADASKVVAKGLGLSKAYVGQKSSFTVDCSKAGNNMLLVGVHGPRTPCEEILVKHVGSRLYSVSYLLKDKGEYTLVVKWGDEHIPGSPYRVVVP
# Results are given in words; binding and its absence hold for the method and conditions named. In cells and extracts the contact can be indirect. Some entries that bind do so weakly or less than the wild type. Sequences can lack the tags named with a protein.
# T1: 3 × FLAG-labeled lanthionine synthetase C-like protein 2 (LANCL2) (UniProt Q9NS86)
# T1 sequence: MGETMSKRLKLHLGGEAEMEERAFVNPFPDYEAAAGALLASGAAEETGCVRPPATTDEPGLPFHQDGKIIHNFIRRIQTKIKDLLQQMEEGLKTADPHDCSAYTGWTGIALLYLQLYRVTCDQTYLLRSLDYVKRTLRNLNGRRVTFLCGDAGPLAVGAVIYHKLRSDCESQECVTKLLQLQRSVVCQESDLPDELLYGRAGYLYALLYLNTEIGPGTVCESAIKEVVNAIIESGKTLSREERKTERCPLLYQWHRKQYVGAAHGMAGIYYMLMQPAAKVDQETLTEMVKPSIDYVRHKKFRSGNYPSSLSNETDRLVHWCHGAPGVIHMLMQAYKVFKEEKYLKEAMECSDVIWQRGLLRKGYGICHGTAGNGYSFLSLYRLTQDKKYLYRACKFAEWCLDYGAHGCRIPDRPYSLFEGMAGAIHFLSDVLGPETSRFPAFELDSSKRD
# Biological target: T1, 3 × FLAG-labeled lanthionine synthetase C-like protein 2 (LANCL2)
# Assay: co-IP; 3xFLAG-LANCL2 captured from infected PC9 cells on anti-FLAG M2 Affinity Gel beads, washed with lysis buffer, immunoblotting of the immunoprecipitates
row,binding,Molecule
1,binds,Filamin A (FLNA) (from UniProt P21333 1-2647)
2,binds,"glutathione S-transferase Mu 3 (GSTM3) (protein, UniProt P21266 1-225) MSCESSMVLGYWDIRGLAHAIRLLLEFTDTSYEEKRYTCGEAPDYDRSQWLDVKFKLDLDFPNLPYLLDGKNKITQSNAILRYIARKHNMCGETEEEKIRVDIIENQVMDFRTQLIRLCYSSDHEKLKPQYLEELPGQLKQFSMFLGKFSWFAGEKLTFVDFLTYDILDQNRIFDPKCLDEFPNLKAFMCRFEALEKIAAYLQSDQFCKMPINNKMAQWGNKPVC"
